Reference: patent US20110201620A1, “2-(3-AMINOARYL) AMINO-4-ARYL-THIAZOLES AND THEIR USE AS C-KIT INHIBITORS” (AB SCIENCE, priority 2002, published 2011)
Some of these results come from one statement about several compounds together.

How the values were obtained:
c-Kit WT = c-Kit WT (UniProt P05532); experiment: Ex vivo TK inhibition assay, proliferation ([3H] thymidine) of Ba/F3 kit cells; settings: read-out: IC50 c-Kit WT
c-Kit JM Δ27 = c-Kit JM Δ27 (Mus musculus, UniProt P05532); experiment: Ex vivo TK inhibition assay, proliferation ([3H] thymidine) of Ba/F3 mkitΔ27 cells; settings: read-out: IC50 c-Kit JM Δ27; juxtamembrane deletion

## CCOC(=O)c1nc(Nc2cc(NC(=O)c3cccc(Br)c3)ccc2C)sc1-c1ccc(Cl)cc1 [Compound 130, 2-[5-(3-Bromo-benzoylamino)-2-methyl-phenylamino]-5-(4-chloro-phenyl)-thiazole-4-carboxylic acid ethyl ester]
c-Kit WT
  IC50: < 10 µM

## Cc1ccc(NC(=O)c2ccc(CN3CCN(C)CC3)c(F)c2)cc1Nc1nc(-c2cccnc2)cs1 [Compound 074, 3-Fluoro-4-(4-methyl-piperazin-1-ylmethyl)-N-[4-methyl-3-(4-pyridin-3-yl-thiazol-2-ylamino)-phenyl]-benzamide]
c-Kit JM Δ27
  IC50: < 1 µM
c-Kit WT
  IC50: < 10 µM

## Cc1ccc(NC(=O)Nc2ccc(F)cc2)cc1Nc1nc(-c2cccnc2)cs1 [Compound 012, 1-(4-Fluoro-phenyl)-3-[4-methyl-3-(4-pyridin-3-yl-thiazol-2-ylamino)-phenyl]-urea]
c-Kit JM Δ27
  IC50: < 1 µM
c-Kit WT
  IC50: < 10 µM

## Cc1cncc(-c2csc(Nc3cc(NC(=O)c4ccc(CN5CCN(C)CC5)cc4)ccc3C)n2)c1 [Compound 084, N-{4-Methyl-3-[4-(5-methyl-pyridin-3-yl)-thiazol-2-ylamino]-phenyl}-4-(4-methyl-piperazin-1-ylmethyl)-benzamide]
c-Kit JM Δ27
  IC50: < 1 µM
c-Kit WT
  IC50: < 10 µM

## CCOC(=O)c1csc(Nc2cc(NC(=O)c3cccc(I)c3)ccc2C)n1 [Compound 007, 2-[5-(3-Iodo-benzoylamino)-2-methyl-phenylamino]-thiazole-4-carboxylic acid ethyl ester]
c-Kit JM Δ27
  IC50: < 1 µM
c-Kit WT
  IC50: < 10 µM

## Cc1ccc(NC(=O)c2ccc(N(C)C)cc2)cc1Nc1nc(-c2cccnc2)cs1 [Compound 047, 4-Dimethylamino-N-[4-methyl-3-(4-pyridin-3-yl-thiazol-2-ylamino)-phenyl]-benzamide]
c-Kit JM Δ27
  IC50: < 1 µM
c-Kit WT
  IC50: < 10 µM

## Cc1ccc(NC(=O)c2ccc(CNC(=O)OC(C)(C)C)cc2)cc1Nc1nc(-c2cccnc2)cs1 [Compound 073, {4-[4-Methyl-3-(4-pyridin-3-yl-thiazol-2-ylamino)-phenylcarbamoyl]-benzyl}-carbamic acid tert-butyl ester]
c-Kit JM Δ27
  IC50: < 1 µM
c-Kit WT
  IC50: < 10 µM

## COc1ccc(-c2csc(Nc3cc(NC(=O)c4ccc(CN5CCN(C)CC5)cc4)ccc3C)n2)cc1 [Compound 110, N-{3-[4-(4-Methoxy-phenyl)-thiazol-2-ylamino]-4-methyl-phenyl}-4-(4-methyl-piperazin-1 ylmethyl)-benzamide]
c-Kit WT
  IC50: < 10 µM

## Cc1ccc(C(=O)Nc2ccc(C)c(Nc3nc(-c4cccnc4)cs3)c2)cc1Br [Compound 105, 3-Bromo-4-methyl-N-[4-methyl-3-(4-pyridin-3-yl-thiazol-2-ylamino)-phenyl]-benzamide]
c-Kit JM Δ27
  IC50: < 1 µM
c-Kit WT
  IC50: < 10 µM

## Cc1ccc(C)c(-c2csc(Nc3cc(NC(=O)c4ccc(CN5CCN(C)CC5)cc4)ccc3C)n2)c1 [Compound 124, N-{3-[4-(2,5-Dimethyl-phenyl)-thiazol-2-ylamino]-4-methyl-phenyl}-4-(4-methyl-piperazin-1-ylmethyl)-benzamide]
c-Kit WT
  IC50: < 10 µM

## Cc1ccc(NC(=O)c2cccc(Br)c2)cc1Nc1nc(-c2ccc(Cl)cc2)c(C)s1 [Compound 128, 3-Bromo-N-{3-[4-(4-chloro-phenyl)-5-methyl-thiazol-2-ylamino]-4-methyl-phenyl}-benzamide]
c-Kit WT
  IC50: < 10 µM

## Cc1ccc(NC(=O)c2ccc(CN3CCN(C)CC3)cc2)cc1Nc1nc(-c2cccnc2)cs1 [Compound 066, 4-(4-methyl-piperazin-1-ylmethyl)-N-[4-methyl-3-(4-pyridin-3-yl-thiazol-2-ylamino)-phenyl]-benzamide]
c-Kit JM Δ27
  IC50: < 1 µM

## Cc1ccc(NC(=O)c2ccc(OS(=O)(=O)c3cccc(F)c3)cc2)cc1Nc1nc(-c2cccnc2)cs1 [Compound 056, 3-Fluoro-benzenesulfonic acid 4-[4-methyl-3-(4-pyridin-3-yl-thiazol-2-ylamino)-phenylcarbamoyl]-phenyl ester]
c-Kit JM Δ27
  IC50: < 1 µM
c-Kit WT
  IC50: < 10 µM

## Cc1ccc(NC(=O)CCCN2CCOCC2)cc1Nc1nc(-c2cccnc2)cs1 [Compound 096, N-[4-Methyl-3-(4-pyridin-3-yl-thiazol-2-ylamino)-phenyl]-4-morpholin-4-yl-butyramide]
c-Kit JM Δ27
  IC50: < 1 µM
c-Kit WT
  IC50: < 10 µM

## CCOC(=O)CCCCC(=O)Nc1ccc(C)c(Nc2nc(-c3cccnc3)cs2)c1 [Compound 093, 5-[4-Methyl-3-(4-pyridin-3-yl-thiazol-2-ylamino)-phenylcarbamoyl]-pentanoic acid ethyl ester]
c-Kit JM Δ27
  IC50: < 1 µM
c-Kit WT
  IC50: < 10 µM

## Cc1ccc(NC(=O)c2ccc(C#N)cc2)cc1Nc1nc(-c2cccnc2)cs1 [Compound 103, 4-Cyano-N-[4-methyl-3-(4-pyridin-3-yl-thiazol-2-ylamino)-phenyl]-benzamide]
c-Kit JM Δ27
  IC50: < 1 µM
c-Kit WT
  IC50: < 10 µM

## Cc1ccc(NC(=O)Nc2ccccc2I)cc1Nc1nc(-c2cccnc2)cs1 [Compound 020, 1-(2-Iodo-phenyl)-3-[4-methyl-3-(4-pyridin-3-yl-thiazol-2-ylamino)-phenyl]-urea]
c-Kit JM Δ27
  IC50: < 1 µM
c-Kit WT
  IC50: < 10 µM

## Cc1cccc(C(=O)Nc2ccc(C)c(Nc3nc(-c4cccnc4)cs3)c2)c1 [Compound 061, 3-Methyl-N-[4-methyl-3-(4-pyridin-3-yl-thiazol-2-ylamino)-phenyl]-benzamide]
c-Kit JM Δ27
  IC50: < 1 µM
c-Kit WT
  IC50: < 10 µM

## Cc1ccc(NC(=O)Nc2ccccc2F)cc1Nc1nc(-c2cccnc2)cs1 [Compound 023, 1-(2-Fluoro-phenyl)-3-[4-methyl-3-(4-pyridin-3-yl-thiazol-2-ylamino)-phenyl]-urea]
c-Kit JM Δ27
  IC50: < 1 µM
c-Kit WT
  IC50: < 10 µM

## Cc1ccc(NC(=O)c2ccc(CN3CCN(C)CC3)cc2)cc1Nc1nc(-c2ccncc2)cs1 [Compound 080, 4-(4-Methyl-piperazin-1-ylmethyl)-N-[4-methyl-3-(4-pyridin-4-yl-thiazol-2-ylamino)-phenyl]-benzamide]
c-Kit JM Δ27
  IC50: < 1 µM
c-Kit WT
  IC50: < 10 µM

## Cc1ccc(NC(=O)Nc2cccc(F)c2)cc1Nc1nc(-c2cccnc2)cs1 [Compound 025, 1-(3-Fluoro-phenyl)-3-[4-methyl-3-(4-pyridin-3-yl-thiazol-2-ylamino)-phenyl]-urea]
c-Kit JM Δ27
  IC50: < 1 µM
c-Kit WT
  IC50: < 10 µM

## Cc1ccc(NC(=O)Nc2ccccc2Cl)cc1Nc1nc(-c2cccnc2)cs1 [Compound 024, 1-(2-Chloro-phenyl)-3-[4-methyl-3-(4-pyridin-3-yl-thiazol-2-ylamino)-phenyl]-urea]
c-Kit JM Δ27
  IC50: < 1 µM
c-Kit WT
  IC50: < 10 µM

## Cc1ccc(NC(=O)Nc2c(C)noc2C)cc1Nc1nc(-c2cccnc2)cs1 [Compound 019, 1-(3,5-Dimethyl-isoxazol-4-yl)-3-[4-methyl-3-(4-pyridin-3-yl-thiazol-2-ylamino)-phenyl]-urea]
c-Kit JM Δ27
  IC50: < 1 µM
c-Kit WT
  IC50: < 10 µM

## Cc1ccc(NC(=O)c2ccccc2I)cc1Nc1nc(-c2cccnc2)cs1 [Compound 032, 2-Iodo-N-[4-methyl-3-(4-pyridin-3-yl-thiazol-2-ylamino)-phenyl]-benzamide]
c-Kit JM Δ27
  IC50: < 1 µM
c-Kit WT
  IC50: < 10 µM

## Cc1ccc(NC(=O)c2cc(Br)c(CNCCCN3CCOCC3)c(Br)c2)cc1Nc1nc(-c2cccnc2)cs1 [Compound 087, 3,5-Dibromo-N-[4-methyl-3-(4-pyridin-3-yl-thiazol-2-ylamino)-phenyl]-4-[(3-morpholin-4-yl-propylamino)-methyl]-benzamide]
c-Kit JM Δ27
  IC50: < 1 µM
c-Kit WT
  IC50: < 10 µM

## Cc1ccc(NC(=O)c2ccc(CN3CCN(C)CC3)cc2)cc1Nc1nc(-c2cccnc2)cs1 [Compound 002, 2-(2-methyl-5-amino)phenyl-4-(3-pyridyl)-thiazole]
c-Kit WT
  IC50: < 10 µM

## Cc1ccc(NC(=O)c2ccc(CN3CCN(C)CC3)c(Br)c2)cc1Nc1nc(-c2cccnc2)cs1 [Compound 078, 3-Bromo-4-(4-methyl-piperazin-1-ylmethyl)-N-[4-methyl-3-(4-pyridin-3-yl-thiazol-2-ylamino)-phenyl]-benzamide]
c-Kit JM Δ27
  IC50: < 1 µM
c-Kit WT
  IC50: < 10 µM

## Cc1ccc(NC(=O)c2cccc(OCCN3CCOCC3)c2)cc1Nc1nc(-c2cccnc2)cs1 [Compound 052, N-[4-Methyl-3-(4-pyridin-3-yl-thiazol-2-ylamino)-phenyl]-3-(2-morpholin-4-yl-ethoxy)-benzamide]
c-Kit JM Δ27
  IC50: < 1 µM
c-Kit WT
  IC50: < 10 µM

## Cc1ccc(NC(=O)c2ccc(CN3CCN(C)CC3)cc2)cc1Nc1nc(-c2cnccn2)cs1 [Compound 006, 4-(4-Methyl-piperazin-1-ylmethyl)-N-[4-methyl-3-(4-pyrazin-2-yl-thiazol-2-ylamino)-phenyl]-benzamide]
c-Kit WT
  IC50: < 10 µM

## Cc1ccc(NC(=O)c2ccc(F)cc2)cc1Nc1nc(-c2cccnc2)cs1 [Compound 106, 4-Fluoro-N-[4-methyl-3-(4-pyridin-3-yl-thiazol-2-ylamino)-phenyl]-benzamide]
c-Kit WT
  IC50: < 10 µM

## Cc1ccc(NC(=O)c2cccc(Br)c2)cc1Nc1nc(C(=O)NCCN(C)C)c(-c2ccc(Cl)cc2)s1 [Compound 131, 2-[5-(3-Bromo-benzoylamino)-2-methyl-phenylamino]-5-(4-chloro-phenyl)-thiazole-4-carboxylic acid (2-dimethylamino-ethyl)-amide]
c-Kit WT
  IC50: < 10 µM

## Cc1ccc(NC(=O)c2cccc(F)c2)cc1Nc1nc(-c2cccnc2)cs1 [Compound 045, 3-Fluoro-N-[4-methyl-3-(4-pyridin-3-yl-thiazol-2-ylamino)-phenyl]-benzamide]
c-Kit WT
  IC50: < 10 µM

## Cc1ccc(NC(=O)c2ccc(CN3CCN(C)CC3)cc2)cc1Nc1nc(-c2cccc(C(F)(F)F)c2)cs1 [Compound 116, 4-(4-Methyl-piperazin-1-ylmethyl)-N-{4-methyl-3-[4-(3-trifluoromethyl-phenyl)-thiazol-2-ylamino]-phenyl}-benzamide]
c-Kit WT
  IC50: < 10 µM

## Cc1ccc(NC(=O)OCC(C)C)cc1Nc1nc(-c2ccc(Cl)cc2)c(C)s1 [Compound 129, {3-[4-(4-Chloro-phenyl)-5-methyl-thiazol-2-ylamino]-4-methyl-phenyl}-carbamic acid isobutyl ester]
c-Kit WT
  IC50: < 10 µM

## Cc1ccc(NC(=O)c2ccc(F)cc2)cc1Nc1nc(-c2cccnc2)cs1 [Compound 104, 4-Fluoro-N-[4-methyl-3-(4-pyridin-3-yl-thiazol-2-ylamino)-phenyl]-benzamide]
c-Kit JM Δ27
  IC50: < 1 µM
